Here are results for one molecule from patent US20250376501A1.

By UniProt entry, the sequences of proteins in these tests, tags left out. Where a name states a change or a piece, a line headed by the entry shows the natural chain unless it says otherwise.
UniProt Q969D9: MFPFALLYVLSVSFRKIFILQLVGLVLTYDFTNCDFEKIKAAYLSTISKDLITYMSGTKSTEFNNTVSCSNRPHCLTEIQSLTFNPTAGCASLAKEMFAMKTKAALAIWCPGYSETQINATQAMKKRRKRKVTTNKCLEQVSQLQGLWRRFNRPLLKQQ

The target of the assay is hTSLP-mFc recombinant protein (ACROBiosystems, Cat. No. TSP-H5255) (human) (UniProt Q969D9). Nature of the assay: ELISA, hTSLP-mFc coated at 50 ng/well, anti-His HRP, OD450. (In an ELISA, binding on a coated surface is turned into a signal by an enzyme label.)

These are yes or no findings as the source states them, for the method shown. Some binding calls cover weakened binding; strength is not graded here. Where a sequence is shown, tags or fusion partners need not be part of it.

B1: TSLPR-his (Novoprotein Scientific Inc., Cat. No. CW75) (receptor, UniProt Q9HC73 23-231, looked up, not shown: small tags and cut ends)
chain: QGGAAEGVQIQIIYFNLETVQVTWNASKYSRTNLTFHYRFNGDEAYDQCTNYLLQEGHTSGCLLDAEQRDDILYFSIRNGTHPVFTASRWMVYYLKPSSPKHVRFSWHQDAVTVTCSDLSYGDLLYEVQYRSPFDTEWQSKQENTCNVTIEGLDAEKCYSFWVRVKAMEDVYGPDTYPSDWSEVTCWQRGEIRDACAETPTPPKPKLSK
As to B1, the binding entry was “binds”.
